From article PMC11164869

Target: MyD88-ΔDD (human)
Test: co-IP; HEK293T cells co-transfected with tagged plasmids; IP buffer 1% NP-40, 150 mM NaCl, 10 mM Tris-HCl pH 7.4, 1 mM EDTA; antibody with Protein A/G PLUS Agarose overnight; immunoblot

binding: no binding
B1: Flag-OTUD5 (WT) (enzyme, UniProt Q96G74 1-571)
chain: MTILPKKKPPPPDADPANEPPPPGPMPPAPRRGGGVGVGGGGTGVGGGDRDRDSGVVGARPRASPPPQGPLPGPPGALHRWALAVPPGAVAGPRPQQASPPPCGGPGGPGGGPGDALGAAAAGVGAAGVVVGVGGAVGVGGCCSGPGHSKRRRQAPGVGAVGGGSPEREEVGAGYNSEDEYEAAAARIEAMDPATVEQQEHWFEKALRDKKGFIIKQMKEDGACLFRAVADQVYGDQDMHEVVRKHCMDYLMKNADYFSNYVTEDFTTYINRKRKNNCHGNHIEMQAMAEMYNRPVEVYQYSTGTSAVEPINTFHGIHQNEDEPIRVSYHRNIHYNSVVNPNKATIGVGLGLPSFKPGFAEQSLMKNAIKTSEESWIEQQMLEDKKRATDWEATNEAIEEQVARESYLQWLRDQEKQARQVRGPSQPRKASATCSSATAAASSGLEEWTSRSPRQRSSASSPEHPELHAELGMKPPSPGTVLALAKPPSPCAPGTSSQFSAGADRATSPLVSLYPALECRALIQQMSPSAFGLNDWDDDEILASVLAVSQQEYLDSMKKNKVHRDPPPDKS

No constants are given. Whether binding was seen depends on the method and setting. In cells and extracts the contact can be indirect. Tags and fused reporters may be left off the sequences shown.
